Tested on: murine KPC pancreatic cancer cells
Assay: MTS assay of KPC cell viability/proliferation
Format: cell-based
Conditions: Mus musculus, 72 hours, read-out: IC50, inhibit cell proliferation
Description: FIG. 5B is a graph of MTS assay (E490) of murine KPC and human A2.1 cells treated with crenolanib with various doses for 72 hours. Normalized values are expressed as means±SD form quadruple replicates.
Normalized values are expressed as means±SD form quadruple replicates.
All cell lines were maintained in DMEM+10% FBS, at 37° C. in 5% CO2. Stable cell lines expressing shRNAs were generated by retroviral mediated gene transfer. Briefly, Phoenix or Ampho packaging cells (for murine or human cell lines, respectively) were transfected by the calcium phosphate method with vectors expressing NF-YA, NF-YB, p53, p73, PDGFRa, PDGFRb or Renilla-control shRNAs, and the generated viruses were harvested to infect KPC, KPflC, or a series of human pancreatic, breast, lung and colon cancer cell lines. Infected cells were selected with puromycin and experiments were carried out on derived cell populations. To generate cells stably expressing mutant p53, p73 or PDGFRb, KPflC cells were infected with MSCV-p53-R175H, -R273H, PDGFRb or pcDNA3-HA-p73α and selected in puromycin and G418 respectively to yield stable pools.

**Q.** With `Cc1ccc(NC(=O)c2ccc(CN3CCN(C)CC3)cc2)cc1Nc1nccc(-c2cccnc2)n1` [imatinib] as the compound, how does the IC50 read?
**A.** 29.7 µM

Reference: US20170038384A1, “TREATMENT OF TUMORS EXPRESSING MUTANT P53” (SLOAN-KETTERING INSTITUTE FOR CANCER RESEARCH, priority 2014, published 2017)
